For one substance, binding results are on record in article PMC12135937.

The chains behind the UniProt entries cited, without tags or fusion partners. Residues count along the entry.
UniProt P08138, residues 29-427: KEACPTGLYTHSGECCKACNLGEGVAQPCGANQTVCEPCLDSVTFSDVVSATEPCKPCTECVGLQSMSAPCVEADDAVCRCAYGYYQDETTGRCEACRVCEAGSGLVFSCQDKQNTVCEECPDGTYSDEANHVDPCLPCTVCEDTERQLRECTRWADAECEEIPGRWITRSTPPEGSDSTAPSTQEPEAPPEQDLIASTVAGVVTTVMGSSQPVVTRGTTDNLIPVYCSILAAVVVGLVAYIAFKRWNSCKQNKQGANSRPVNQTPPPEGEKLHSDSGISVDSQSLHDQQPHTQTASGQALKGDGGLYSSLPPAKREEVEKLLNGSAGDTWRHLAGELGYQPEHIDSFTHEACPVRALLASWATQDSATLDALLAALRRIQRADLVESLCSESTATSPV

Results are given in words; binding and its absence hold for the method and conditions named. Some entries that bind do so weakly or less than the wild type.

This experiment deals with p75^NTR-GFP, expressed on HEK293 cells (UniProt P08138). The experiment can be described thus: flow cytometry on cells; cell-cell adhesion: HEK293 Freestyle cells expressing a Dpr (IRES GFP, challenger) mixed in equal volumes with cells expressing a DIP or DIP/Dpr (mCherry) in PBS 0.2% BSA pH 7.4, 96-well plates; percent GFP+mCherry double-positive events.

Take “B7-1-mCherry, expressed on HEK293 cells (from UniProt P33681 35-288) (ligand)”: the binding entry is “binds”.
